No constants are given. Whether binding was seen depends on the method and setting. Binding seen in cells or lysates may run through a third protein. Here binding means that the protein was enriched with, or labelled near, the bait; the list need not be complete.

By UniProt entry, the sequences of proteins in these tests, tags left out. Residues count along the entry.
UniProt P08758: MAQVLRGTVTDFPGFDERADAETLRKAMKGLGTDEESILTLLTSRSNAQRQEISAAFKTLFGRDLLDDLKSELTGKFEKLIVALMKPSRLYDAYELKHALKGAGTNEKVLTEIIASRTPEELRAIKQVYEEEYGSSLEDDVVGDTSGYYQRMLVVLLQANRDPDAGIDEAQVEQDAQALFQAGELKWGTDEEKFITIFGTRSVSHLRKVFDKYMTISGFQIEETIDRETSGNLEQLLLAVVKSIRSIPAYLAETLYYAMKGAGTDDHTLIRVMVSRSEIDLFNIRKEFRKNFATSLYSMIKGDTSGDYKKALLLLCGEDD
UniProt Q9NP61: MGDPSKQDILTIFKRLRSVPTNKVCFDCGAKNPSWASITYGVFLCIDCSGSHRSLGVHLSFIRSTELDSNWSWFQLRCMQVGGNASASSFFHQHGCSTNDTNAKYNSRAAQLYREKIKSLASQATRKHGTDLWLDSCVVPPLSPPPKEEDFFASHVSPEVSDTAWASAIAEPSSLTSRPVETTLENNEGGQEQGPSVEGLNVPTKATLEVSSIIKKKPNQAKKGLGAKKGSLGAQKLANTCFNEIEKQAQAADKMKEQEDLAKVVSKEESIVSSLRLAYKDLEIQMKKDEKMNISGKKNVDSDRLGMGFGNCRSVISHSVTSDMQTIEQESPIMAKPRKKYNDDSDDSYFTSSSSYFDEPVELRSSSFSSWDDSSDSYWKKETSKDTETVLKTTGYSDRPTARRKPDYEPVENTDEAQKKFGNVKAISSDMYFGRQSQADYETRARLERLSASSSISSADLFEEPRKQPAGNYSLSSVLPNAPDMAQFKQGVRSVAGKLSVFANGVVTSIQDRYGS
UniProt Q9Y5K8: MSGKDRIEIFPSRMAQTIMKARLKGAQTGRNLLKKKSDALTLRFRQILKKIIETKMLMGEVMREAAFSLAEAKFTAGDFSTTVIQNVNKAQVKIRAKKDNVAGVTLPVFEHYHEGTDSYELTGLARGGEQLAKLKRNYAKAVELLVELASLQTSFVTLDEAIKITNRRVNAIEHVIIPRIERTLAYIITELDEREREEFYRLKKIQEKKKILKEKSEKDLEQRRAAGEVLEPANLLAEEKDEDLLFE
UniProt Q99459: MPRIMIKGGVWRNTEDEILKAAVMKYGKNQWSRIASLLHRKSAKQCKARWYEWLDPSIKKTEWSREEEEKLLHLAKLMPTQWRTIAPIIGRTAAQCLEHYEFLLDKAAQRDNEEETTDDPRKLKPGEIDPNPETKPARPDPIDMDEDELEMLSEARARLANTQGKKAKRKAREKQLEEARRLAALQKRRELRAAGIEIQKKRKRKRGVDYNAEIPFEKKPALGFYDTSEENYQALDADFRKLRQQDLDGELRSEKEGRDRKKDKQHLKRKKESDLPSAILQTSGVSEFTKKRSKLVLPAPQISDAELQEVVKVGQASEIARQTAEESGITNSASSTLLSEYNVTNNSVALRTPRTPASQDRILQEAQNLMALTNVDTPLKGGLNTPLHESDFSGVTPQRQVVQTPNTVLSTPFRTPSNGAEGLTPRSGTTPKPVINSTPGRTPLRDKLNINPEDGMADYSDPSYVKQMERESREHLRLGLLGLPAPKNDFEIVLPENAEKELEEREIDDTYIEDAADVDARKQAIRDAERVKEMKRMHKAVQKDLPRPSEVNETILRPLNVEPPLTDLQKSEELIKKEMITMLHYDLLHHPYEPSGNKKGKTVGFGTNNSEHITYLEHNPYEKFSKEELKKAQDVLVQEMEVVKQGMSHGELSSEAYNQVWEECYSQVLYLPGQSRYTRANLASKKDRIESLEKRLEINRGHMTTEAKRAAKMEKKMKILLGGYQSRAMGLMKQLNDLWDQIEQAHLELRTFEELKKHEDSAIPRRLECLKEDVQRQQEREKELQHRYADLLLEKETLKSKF
UniProt Q04760: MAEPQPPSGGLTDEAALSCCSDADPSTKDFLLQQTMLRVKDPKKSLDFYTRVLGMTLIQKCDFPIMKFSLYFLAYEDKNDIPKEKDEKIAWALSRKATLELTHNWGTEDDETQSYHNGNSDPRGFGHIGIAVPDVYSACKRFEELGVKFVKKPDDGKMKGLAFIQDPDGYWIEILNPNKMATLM
UniProt Q9BYX4: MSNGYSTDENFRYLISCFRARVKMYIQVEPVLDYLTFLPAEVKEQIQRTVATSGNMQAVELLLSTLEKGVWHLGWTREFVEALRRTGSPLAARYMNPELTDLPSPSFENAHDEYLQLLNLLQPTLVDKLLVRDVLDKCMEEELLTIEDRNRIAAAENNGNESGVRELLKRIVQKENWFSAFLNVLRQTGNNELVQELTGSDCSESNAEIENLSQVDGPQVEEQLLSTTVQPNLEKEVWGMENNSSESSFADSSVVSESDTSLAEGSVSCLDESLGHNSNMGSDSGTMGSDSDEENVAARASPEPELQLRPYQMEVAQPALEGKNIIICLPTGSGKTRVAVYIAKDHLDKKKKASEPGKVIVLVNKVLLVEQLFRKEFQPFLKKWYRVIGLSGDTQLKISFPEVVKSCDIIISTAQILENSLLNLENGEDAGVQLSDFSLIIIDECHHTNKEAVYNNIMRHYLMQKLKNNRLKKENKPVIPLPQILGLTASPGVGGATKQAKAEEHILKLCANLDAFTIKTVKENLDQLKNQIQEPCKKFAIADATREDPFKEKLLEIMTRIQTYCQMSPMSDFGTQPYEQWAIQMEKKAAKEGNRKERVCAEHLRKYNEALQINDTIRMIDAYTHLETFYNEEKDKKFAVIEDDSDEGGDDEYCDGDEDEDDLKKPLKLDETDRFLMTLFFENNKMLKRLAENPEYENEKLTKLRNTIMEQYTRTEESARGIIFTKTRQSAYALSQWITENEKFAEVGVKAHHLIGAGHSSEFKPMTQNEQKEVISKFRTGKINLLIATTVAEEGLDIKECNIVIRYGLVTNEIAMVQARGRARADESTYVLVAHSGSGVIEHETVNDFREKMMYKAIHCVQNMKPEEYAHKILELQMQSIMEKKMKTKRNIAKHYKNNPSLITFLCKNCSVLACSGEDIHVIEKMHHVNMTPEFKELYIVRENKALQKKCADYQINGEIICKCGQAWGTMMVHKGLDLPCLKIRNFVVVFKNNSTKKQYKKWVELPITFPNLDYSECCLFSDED
UniProt Q99612: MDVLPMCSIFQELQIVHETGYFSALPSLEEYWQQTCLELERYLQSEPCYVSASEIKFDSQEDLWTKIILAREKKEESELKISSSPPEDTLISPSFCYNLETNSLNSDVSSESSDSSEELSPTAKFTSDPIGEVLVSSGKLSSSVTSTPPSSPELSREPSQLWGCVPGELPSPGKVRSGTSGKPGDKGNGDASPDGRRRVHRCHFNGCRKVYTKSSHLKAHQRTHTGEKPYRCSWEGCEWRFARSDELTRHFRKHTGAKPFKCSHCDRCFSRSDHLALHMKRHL
UniProt O43676: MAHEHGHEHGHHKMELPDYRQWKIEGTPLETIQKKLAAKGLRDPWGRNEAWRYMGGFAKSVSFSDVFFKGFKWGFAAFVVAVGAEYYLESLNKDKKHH
UniProt P49321: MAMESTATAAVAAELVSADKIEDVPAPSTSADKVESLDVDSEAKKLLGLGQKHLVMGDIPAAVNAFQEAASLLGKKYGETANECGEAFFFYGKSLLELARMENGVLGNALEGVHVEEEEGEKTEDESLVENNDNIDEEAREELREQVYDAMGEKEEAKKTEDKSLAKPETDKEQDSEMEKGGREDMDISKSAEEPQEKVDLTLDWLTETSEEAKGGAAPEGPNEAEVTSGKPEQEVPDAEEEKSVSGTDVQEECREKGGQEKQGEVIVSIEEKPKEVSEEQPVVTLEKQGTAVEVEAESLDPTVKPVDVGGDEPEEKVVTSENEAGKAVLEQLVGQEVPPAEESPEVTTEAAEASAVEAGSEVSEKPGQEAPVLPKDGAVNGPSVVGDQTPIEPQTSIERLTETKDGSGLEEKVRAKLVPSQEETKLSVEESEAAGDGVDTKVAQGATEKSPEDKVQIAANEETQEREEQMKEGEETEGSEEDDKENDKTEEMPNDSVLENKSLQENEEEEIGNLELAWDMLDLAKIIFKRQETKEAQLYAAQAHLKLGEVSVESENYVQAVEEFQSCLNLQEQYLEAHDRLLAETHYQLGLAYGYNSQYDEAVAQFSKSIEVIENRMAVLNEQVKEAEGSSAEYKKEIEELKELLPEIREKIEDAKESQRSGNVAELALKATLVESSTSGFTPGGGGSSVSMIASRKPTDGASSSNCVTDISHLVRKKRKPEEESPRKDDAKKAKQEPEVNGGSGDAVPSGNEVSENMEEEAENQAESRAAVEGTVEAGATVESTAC
UniProt P49790: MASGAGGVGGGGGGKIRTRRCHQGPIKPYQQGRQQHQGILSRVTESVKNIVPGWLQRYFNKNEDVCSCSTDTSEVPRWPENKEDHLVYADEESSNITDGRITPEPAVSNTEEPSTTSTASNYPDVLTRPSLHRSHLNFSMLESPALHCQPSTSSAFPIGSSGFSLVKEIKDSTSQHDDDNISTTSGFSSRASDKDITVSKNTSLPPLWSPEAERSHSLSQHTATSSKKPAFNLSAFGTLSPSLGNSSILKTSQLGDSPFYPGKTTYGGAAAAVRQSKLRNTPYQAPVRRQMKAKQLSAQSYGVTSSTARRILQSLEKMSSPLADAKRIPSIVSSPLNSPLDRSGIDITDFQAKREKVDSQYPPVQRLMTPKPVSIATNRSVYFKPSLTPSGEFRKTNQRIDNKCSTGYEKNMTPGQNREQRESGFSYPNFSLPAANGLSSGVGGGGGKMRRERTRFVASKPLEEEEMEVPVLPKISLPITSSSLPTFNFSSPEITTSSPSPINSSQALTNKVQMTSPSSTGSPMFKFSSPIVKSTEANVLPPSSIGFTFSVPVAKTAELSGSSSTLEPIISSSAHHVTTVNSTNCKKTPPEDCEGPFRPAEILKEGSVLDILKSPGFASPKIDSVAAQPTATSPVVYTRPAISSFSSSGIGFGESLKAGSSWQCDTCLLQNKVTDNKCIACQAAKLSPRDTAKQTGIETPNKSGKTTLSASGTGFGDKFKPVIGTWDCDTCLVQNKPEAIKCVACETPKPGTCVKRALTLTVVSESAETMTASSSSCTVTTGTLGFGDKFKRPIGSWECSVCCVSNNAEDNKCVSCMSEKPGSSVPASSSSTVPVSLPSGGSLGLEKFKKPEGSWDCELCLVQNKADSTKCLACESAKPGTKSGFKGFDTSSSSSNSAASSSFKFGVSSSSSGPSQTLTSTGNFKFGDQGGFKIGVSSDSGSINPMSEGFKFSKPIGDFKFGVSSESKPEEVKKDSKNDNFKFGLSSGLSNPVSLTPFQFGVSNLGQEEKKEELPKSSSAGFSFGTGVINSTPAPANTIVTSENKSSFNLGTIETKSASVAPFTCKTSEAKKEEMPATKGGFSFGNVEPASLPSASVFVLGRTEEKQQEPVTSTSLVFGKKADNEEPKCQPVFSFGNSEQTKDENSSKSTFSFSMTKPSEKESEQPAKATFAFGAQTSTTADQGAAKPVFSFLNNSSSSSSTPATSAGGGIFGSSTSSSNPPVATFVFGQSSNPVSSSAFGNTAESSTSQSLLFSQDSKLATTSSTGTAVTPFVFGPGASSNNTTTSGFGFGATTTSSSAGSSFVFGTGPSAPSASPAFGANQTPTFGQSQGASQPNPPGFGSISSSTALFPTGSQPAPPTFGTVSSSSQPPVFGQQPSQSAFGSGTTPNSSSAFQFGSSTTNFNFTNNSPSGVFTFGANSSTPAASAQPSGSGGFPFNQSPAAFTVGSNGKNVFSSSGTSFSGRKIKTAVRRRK
UniProt Q03181: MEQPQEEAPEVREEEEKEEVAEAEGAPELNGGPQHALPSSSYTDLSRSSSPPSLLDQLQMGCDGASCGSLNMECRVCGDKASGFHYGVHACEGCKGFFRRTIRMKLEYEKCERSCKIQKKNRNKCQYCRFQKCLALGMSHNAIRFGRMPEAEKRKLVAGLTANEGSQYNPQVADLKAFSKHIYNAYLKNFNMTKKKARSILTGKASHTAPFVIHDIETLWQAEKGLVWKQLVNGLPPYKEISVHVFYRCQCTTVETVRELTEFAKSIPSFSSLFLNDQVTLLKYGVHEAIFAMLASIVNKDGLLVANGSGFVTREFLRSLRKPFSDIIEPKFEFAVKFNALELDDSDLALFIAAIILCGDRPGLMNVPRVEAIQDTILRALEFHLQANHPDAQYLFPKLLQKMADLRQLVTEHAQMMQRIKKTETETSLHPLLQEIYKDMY
UniProt Q01995: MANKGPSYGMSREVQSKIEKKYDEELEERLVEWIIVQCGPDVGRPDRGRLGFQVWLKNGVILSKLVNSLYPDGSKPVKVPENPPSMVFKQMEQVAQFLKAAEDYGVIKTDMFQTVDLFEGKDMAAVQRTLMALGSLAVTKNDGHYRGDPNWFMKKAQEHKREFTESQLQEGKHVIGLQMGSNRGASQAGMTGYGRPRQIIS
UniProt Q07021, residues 74-282: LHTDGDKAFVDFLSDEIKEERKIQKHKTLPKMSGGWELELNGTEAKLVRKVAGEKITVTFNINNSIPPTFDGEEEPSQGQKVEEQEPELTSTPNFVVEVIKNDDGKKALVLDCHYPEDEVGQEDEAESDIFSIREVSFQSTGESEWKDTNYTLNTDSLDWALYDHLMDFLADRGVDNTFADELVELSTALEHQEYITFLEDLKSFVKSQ

The text below walks through data of article PMC11605229.

The assay addresses BioID-BAG3 (UniProt O95817). The assay can be described thus: proximity labelling; BioID in human AC16 cardiomyocyte cells: transfected with plasmid expressing BioID-BAG3 for 48 h, biotin for 16 h; LC-MS/MS; BAG3_Biotin vs. BioID vector only, adjusted p < 0.05; effect sizes corrected for biotin alone and for BAG3 over-expression; three replicates.
ANXA5 (from UniProt P08758 1-320): the binding result is reported as “binds”.
Consider ARFGAP3 (from UniProt Q9NP61 1-516), for which the binding entry was “binds”.
The same measure for ATP6V1D (from UniProt Q9Y5K8 1-247): “binds”; for ATXN1 (from UniProt P54253 1-815): “binds”.
Turning to “Bcl-2-associated transcription factor 1 (from UniProt Q9NYF8 1-920)”, the binding result is on record as “binds”.
For the substance CAPZB (from UniProt P47756 1-272), the binding result was “binds”.
CASP1 (from UniProt P29466 1-404): the binding entry is given as “binds”.
Turning to CBX3 (from UniProt Q13185 1-183), the binding entry is given as “binds”.
In the case of CBX5 (from UniProt P45973 1-191) it was “binds”.
In the case of CDC5L (from UniProt Q99459 1-802), the binding entry is reported as “binds”.
In the case of CFL1 (from UniProt P23528 1-166) it was “binds”.
The same measure for DBT (from UniProt P11182 62-482): “binds”; for DCP2 (from UniProt Q8IU60 1-420): “binds”.
In the case of EIF4A3 (from UniProt P38919 1-411) it was “binds”; in that of EIF5 (from UniProt P55010 1-431), “binds”; in that of ENAH (from UniProt Q8N8S7 1-591), “binds”.
For EPB41L2 (from UniProt O43491 1-1005), the binding entry is listed as “binds”.
The same measure for FUS (from UniProt P35637 1-526): “binds”; for GLO1 (from UniProt Q04760 1-184): “binds”.
The same measure for GTF2F1 (from UniProt P35269 1-517): “binds”.
In the case of IFIH1 (from UniProt Q9BYX4 1-1025), the binding entry was “binds”.
In the case of KLF6 (from UniProt Q99612 1-283) it was “binds”.
LIMA1 (from UniProt Q9UHB6 1-759): the binding result is recorded as “binds”.
In the case of “NADH dehydrogenase 1 beta subcomplex subunit 3 (from UniProt O43676 1-98)” it was “binds”; in that of “NADH dehydrogenase 1 beta subcomplex subunit 6 (from UniProt O95139 1-128)”, “binds”.
In the case of “NADH dehydrogenase flavoprotein 1, mitochondrial (from UniProt P49821 21-464)” it was “binds”.
The same measure for NAGK (from UniProt Q9UJ70 1-344): “binds”; for NASP (from UniProt P49321 1-788): “binds”; for NUP153 (from UniProt P49790 1-1475): “binds”.
On to PCM1 (from UniProt Q15154 1-2024), for which the binding entry is reported as “binds”.
On to PDLIM1 (from UniProt O00151 1-329), for which the binding result was “binds”.
The same measure for PEBP1 (from UniProt P30086 1-187): “binds”.
The same measure for PHF3 (from UniProt Q92576 1-2039): “binds”.
The same measure for PHLDA1 (from UniProt Q8WV24 1-401): “binds”.
For the substance PIKFYVE (from UniProt Q9Y2I7 1-2098), the binding result was “binds”.
In the case of PPARD (from UniProt Q03181 1-441) it was “binds”; in that of PSIP1 (from UniProt O75475 1-530), “binds”; in that of PSMC2 (from UniProt P35998 1-433), “binds”.
In the case of PWP1 (from UniProt Q13610 1-501) it was “binds”; in that of REV3L (from UniProt O60673 1-3130), “binds”.
The same measure for RFC2 (from UniProt P35250 1-354): “binds”; for RFC3 (from UniProt P40938 1-356): “binds”; for SGK1 (from UniProt O00141 1-431): “binds”.
For SIPA1L1 (from UniProt O43166 1-1804), the binding result is on record as “binds”.
In the case of SPTAN1 (from UniProt Q13813 1-2472) it was “binds”; in that of STMN1 (from UniProt P16949 1-149), “binds”.
SVIL (from UniProt O95425 1-2214): the binding entry is “binds”.
In the case of TAGLN (from UniProt Q01995 1-201) it was “binds”; in that of TOP1 (from UniProt P11387 1-765), “binds”; in that of TP53 (from UniProt P04637 1-393), “binds”.
On to TPX2 (from UniProt Q9ULW0 1-747), for which the binding entry is given as “binds”.
In the case of TRIM21 (from UniProt P19474 1-475) it was “binds”; in that of “complement component 1 Q subcomponent-binding protein, mitochondrial (from UniProt Q07021 74-282)”, “binds”.
In the case of “heat shock 70 kDa protein 6 (from UniProt P17066 1-643)” it was “binds”.
